Test results: paper PMC8730435
Results are given in words; binding and its absence hold for the method and conditions named. Some results given as binding are weak or reduced against the parent protein; the word gives no strength. Blank lines part the entries; values can stand above or below the molecule they belong to.

Protein sequences, listed by entry. Tags and fused reporters are not part of them. Residues count along the entry.
AR-DBD-LBD (androgen receptor residues 554-919) (P10275, residues 554-919): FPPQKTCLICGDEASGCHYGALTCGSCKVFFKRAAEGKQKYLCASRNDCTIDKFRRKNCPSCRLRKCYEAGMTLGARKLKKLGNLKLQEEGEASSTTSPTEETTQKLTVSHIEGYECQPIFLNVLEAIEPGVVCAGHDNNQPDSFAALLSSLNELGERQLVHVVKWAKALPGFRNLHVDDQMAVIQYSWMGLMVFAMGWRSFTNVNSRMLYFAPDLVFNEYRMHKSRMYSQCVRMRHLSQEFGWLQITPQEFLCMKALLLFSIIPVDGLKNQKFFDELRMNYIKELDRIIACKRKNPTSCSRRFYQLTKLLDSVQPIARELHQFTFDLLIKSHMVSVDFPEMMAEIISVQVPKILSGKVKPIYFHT
AR-LBD (androgen receptor ligand-binding domain, residues 663-919) (P10275, residues 663-919): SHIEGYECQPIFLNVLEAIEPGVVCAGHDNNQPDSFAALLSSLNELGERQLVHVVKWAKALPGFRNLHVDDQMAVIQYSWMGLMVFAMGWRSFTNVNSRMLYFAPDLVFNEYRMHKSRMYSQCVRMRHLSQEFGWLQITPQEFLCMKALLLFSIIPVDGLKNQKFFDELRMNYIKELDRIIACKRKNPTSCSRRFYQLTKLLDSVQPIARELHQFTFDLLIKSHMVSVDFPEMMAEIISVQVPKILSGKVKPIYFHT

What was measured:
[1] = biological target: T1, KDM4A catalytic domain (residues 1-350) (human) (UniProt O75164); assay: NMR titration; 1H-15N TROSY-HSQC of 15N-KDM4A(1-350) or 15N-KDM4B(1-348), 40-50 uM, alone or with equimolar unlabelled AR fragment; 25 C; 25 mM Tris pH 7.4, 125 mM NaCl, 1 mM TCEP, 5% D2O; 1 uM DHT with AR-LBD or AR-DBD-LBD; both purified
T1 sequence: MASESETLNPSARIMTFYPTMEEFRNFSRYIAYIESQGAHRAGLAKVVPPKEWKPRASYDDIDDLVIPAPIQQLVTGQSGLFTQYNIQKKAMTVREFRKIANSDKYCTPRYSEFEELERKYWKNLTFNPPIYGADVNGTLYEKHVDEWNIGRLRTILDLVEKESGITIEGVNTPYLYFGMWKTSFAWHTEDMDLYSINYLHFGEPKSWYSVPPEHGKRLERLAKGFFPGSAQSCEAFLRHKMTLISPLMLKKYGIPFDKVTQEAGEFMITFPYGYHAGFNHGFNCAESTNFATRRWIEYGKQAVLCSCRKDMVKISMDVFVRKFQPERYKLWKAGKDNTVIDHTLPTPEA

[2] = biological target: AR-LBD (androgen receptor ligand-binding domain, residues 663-919) (human) (UniProt P10275); assay: NMR titration; 1H-15N TROSY-HSQC of 15N-AR-LBD bound to DHT, 40-50 uM, alone or with equimolar unlabelled KDM4A fragment; 25 C; 25 mM Tris pH 7.4, 125 mM NaCl, 0.1% octyl beta-D-glucopyranoside, 1 mM TCEP, 5% D2O, 1 uM DHT; both purified

Molecule: AR-DBD-LBD (androgen receptor residues 554-919) (from UniProt P10275 554-919) (domain or fragment)
- binding [1]: no binding (tested: 40-50 uM of each, equimolar)

Molecule: AR-LBD (androgen receptor ligand-binding domain, residues 663-919) (from UniProt P10275 663-919) (domain or fragment)
- binding [1]: no binding (tested: 40-50 uM of each, equimolar)

- binding [2]: binds weakly
B1: KDM4A central region (residues 301-708) (domain or fragment, UniProt O75164 301-708)
chain: KQAVLCSCRKDMVKISMDVFVRKFQPERYKLWKAGKDNTVIDHTLPTPEAAEFLKESELPPRAGNEEECPEEDMEGVEDGEEGDLKTSLAKHRIGTKRHRVCLEIPQEVSQSELFPKEDLSSEQYEMTECPAALAPVRPTHSSVRQVEDGLTFPDYSDSTEVKFEELKNVKLEEEDEEEEQAAAALDLSVNPASVGGRLVFSGSKKKSSSSLGSGSSRDSISSDSETSEPLSCRAQGQTGVLTVHSYAKGDGRVTVGEPCTRKKGSAARSFSERELAEVADEYMFSLEENKKSKGRRQPLSKLPRHHPLVLQECVSDDETSEQLTPEEEAEETEAWAKPLSQLWQNRPPNFEAEKEFNETMAQQAPHCAVCMIFQTYHQVEFGGFNQNCGNASDLAPQKQRTKPLIPE
